Laboratory results from the supplement of paper PMC7125110.
± gives the standard error. Many entries were measured with a wide error.

B1: glmS ribozyme (parent)
chain: AUAAAAGCGCCAGAACUACAGAAAUGUAGUUGACGAGGAGGAGGUUUAUCGAAUUUUCGGCGGAUGCCUCCAAA

Variants of: B1
Test: KM; higher = weaker cofactor use; RNA array
Details: with glucosamine-6-phosphate
Summary of the method: (§1)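 kobs was derived by fitting per-tile medians to one- or two-exponential decays after normalising signals to baseline and to non-cleaving reference variants. Those signals came from barcoded ribozyme variants transcribed in situ by E. coli RNA polymerase on sequenced MiSeq chips, followed through a hybridised Cy3 probe at 37 °C and imaged over ~14 h. Glucosamine-6-phosphate (40 μM to 10 mM) in HEPES/KCl/Mg(OAc)2 buffer was flowed in. Weighted Michaelis–Menten fits across concentrations then gave kcat and KM.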

Q: How did the KM turn out when C11U U47G was run?
A: 734 ± 380 µM

Q: For C11U U54G, which KM is on record?
A: 1420 ± 1000 µM

Q: For C11U U55A U56G, which KM is on record?
A: 1530 ± 1100 µM

Q: For C11U U55G, which KM is on record?
A: 1700 ± 660 µM

Q: C11U U56C was tested. Which KM did it give?
A: 2260 ± 1000 µM

Q: C11U U65G was tested. Which KM did it give?
A: 2580 ± 1200 µM

Q: A12C A36U was tested. Which KM did it give?
A: 56.2 ± 26 µM

Q: How did the KM turn out when A12C A42G was run?
A: 958 ± 630 µM

Q: How did the KM turn out when A12C A48C was run?
A: 3900 ± 2300 µM

Q: How did the KM turn out when A12C C67G was run?
A: 1210 ± 660 µM

Q: For A12C C68U, which KM is on record?
A: 1370 ± 220 µM

Q: With A12C C70G as the variant, how does the KM read?
A: 572 ± 440 µM

Q: How did the KM turn out when A12C G26U was run?
A: 281 ± 220 µM

Q: Which KM does the source give for A12C G29C here?
A: 2770 ± 820 µM

Q: Which KM does the source give for A12C G41A here?
A: 1930 ± 1100 µM

Q: How did the KM turn out when A12C U30C C71U was run?
A: 3540 ± 1200 µM

Q: A12C U45A was tested. Which KM did it give?
A: 1690 ± 110 µM

Q: With A12C U46C as the variant, how does the KM read?
A: 1680 ± 590 µM

Q: With A12C U47C as the variant, how does the KM read?
A: 1840 ± 380 µM

Q: A12C U54A was tested. Which KM did it give?
A: 863 ± 530 µM

Q: How did the KM turn out when A12C U54G was run?
A: 2520 ± 1400 µM

Q: For A12C U54G G66U, which KM is on record?
A: 3400 ± 2200 µM

Q: A12C U56G was tested. Which KM did it give?
A: 3360 ± 910 µM

Q: Which KM does the source give for A12C U57A here?
A: 893 ± 750 µM

Q: Which KM does the source give for A12G A15G C70A here?
A: 2120 ± 890 µM

Q: With A12G A64G as the variant, how does the KM read?
A: 2560 ± 1100 µM

Q: Which KM does the source give for A12G C58G C67A here?
A: 150 ± 140 µM

Q: How did the KM turn out when A12G C67G was run?
A: 1850 ± 62 µM

Q: Which KM does the source give for A12G G29U C67G here?
A: 2890 ± 2200 µM

Q: How did the KM turn out when A12G G32U was run?
A: 11700 ± 580 µM

Q: A12G G37U was tested. Which KM did it give?
A: 155 ± 150 µM

Q: A12G G41C was tested. Which KM did it give?
A: 11300 ± 2800 µM

Q: For A12G G59C, which KM is on record?
A: 671 ± 630 µM

Q: For A12G G59U, which KM is on record?
A: 1330 ± 1200 µM

Q: How did the KM turn out when A12G G66U was run?
A: 14700 ± 7300 µM

Q: With A12G U45C as the variant, how does the KM read?
A: 2510 ± 620 µM

Q: For A12G U49G, which KM is on record?
A: 138000 ± 50000 µM

Q: Which KM does the source give for A12U A39G here?
A: 99.8 ± 75 µM

Q: A12U A42C was tested. Which KM did it give?
A: 869 ± 540 µM

Q: Which KM does the source give for A12U A52U here?
A: 4090 ± 490 µM

Q: Which KM does the source give for A12U C58A here?
A: 24100 ± 8900 µM

Q: With A12U C68G as the variant, how does the KM read?
A: 624 ± 230 µM

Q: For A12U C70U, which KM is on record?
A: 84.3 ± 67 µM

Q: How did the KM turn out when A12U G37U was run?
A: 17200 ± 8700 µM

Q: Which KM does the source give for A12U G43C here?
A: 6950 ± 1500 µM

Q: A12U G43U was tested. Which KM did it give?
A: 1790 ± 1200 µM

Q: For A12U G66C, which KM is on record?
A: 1270 ± 160 µM

Q: With A12U U31A as the variant, how does the KM read?
A: 2890 ± 880 µM

Q: How did the KM turn out when A12U U31G U47C was run?
A: 925 ± 880 µM

Q: A12U U45A A53U was tested. Which KM did it give?
A: 1100 ± 390 µM

Q: How did the KM turn out when A12U U45G was run?
A: 1870 ± 530 µM

Q: A12U U47A was tested. Which KM did it give?
A: 1490 ± 570 µM

Q: For A12U U47G C70G, which KM is on record?
A: 179 ± 100 µM

Q: Which KM does the source give for A12U U54C here?
A: 422 ± 230 µM

Q: With A12U U65C as the variant, how does the KM read?
A: 1820 ± 1000 µM

Q: Which KM does the source give for G13A here?
A: 4830 ± 750 µM

Q: For G13A A53U C58A, which KM is on record?
A: 3780 ± 2600 µM

Q: With G13A C16U as the variant, how does the KM read?
A: 2220 ± 460 µM

Q: Which KM does the source give for G13A C61G here?
A: 127 ± 17 µM

Q: How did the KM turn out when G13A C67A was run?
A: 4490 ± 2100 µM

Q: How did the KM turn out when G13A G40A was run?
A: 6100 ± 1200 µM

Q: With G13A G59A as the variant, how does the KM read?
A: 210 ± 160 µM

Q: How did the KM turn out when G13A U30G was run?
A: 6050 ± 1100 µM

Q: How did the KM turn out when G13A U49C was run?
A: 177 ± 160 µM

Q: How did the KM turn out when G13A U56C was run?
A: 10100 ± 300 µM

Q: With G13A U56G as the variant, how does the KM read?
A: 3800 ± 1300 µM

Q: G13A U65A was tested. Which KM did it give?
A: 10100 ± 6100 µM

Q: Which KM does the source give for G13C A14U here?
A: 2100 ± 320 µM

Q: G13C G40C was tested. Which KM did it give?
A: 28300 ± 17000 µM

Q: With G13C G41U as the variant, how does the KM read?
A: 10600 ± 6000 µM

Q: G13C U31A was tested. Which KM did it give?
A: 3100 ± 280 µM

Q: For G13C U45A, which KM is on record?
A: 5140 ± 3500 µM

Q: How did the KM turn out when G13C U55G was run?
A: 2560 ± 1500 µM

Q: For G13U A15G, which KM is on record?
A: 5260 ± 3600 µM

Q: For G13U A42C U69G, which KM is on record?
A: 2840 ± 2300 µM

Q: With G13U C16G as the variant, how does the KM read?
A: 5170 ± 950 µM

Q: With G13U C16U as the variant, how does the KM read?
A: 3430 ± 1000 µM

Q: For G13U G32C, which KM is on record?
A: 5090 ± 3000 µM

Q: Which KM does the source give for G13U G40U here?
A: 568 ± 390 µM

Q: Which KM does the source give for G13U U54G here?
A: 1090 ± 590 µM

Q: For A14C A33C, which KM is on record?
A: 55.9 ± 44 µM

Q: For A14C C50U, which KM is on record?
A: 12000 ± 9900 µM

Q: A14C C58A was tested. Which KM did it give?
A: 3250 ± 500 µM

Q: For A14C G29C, which KM is on record?
A: 12400 ± 6700 µM

Variants of: B1
Test: self-cleavage kobs at 160 uM GlcN6P; higher = faster cleavage; RNA array
Details: with glucosamine-6-phosphate
Summary of the method: as §1

Q: With C11U U47G as the variant, how does the “self-cleavage kobs at 160 uM GlcN6P” value read?
A: 2.51e-05 ± 1.6e-05 s⁻¹

Q: How did the “self-cleavage kobs at 160 uM GlcN6P” value turn out when C11U U56C was run?
A: 1.94e-05 ± 1.7e-05 s⁻¹

Q: For A12G C58G C67A, which “self-cleavage kobs at 160 uM GlcN6P” value is on record?
A: 4.54e-05 ± 2.9e-05 s⁻¹

Q: Which “self-cleavage kobs at 160 uM GlcN6P” value does the source give for G13U C16G here?
A: 2.08e-05 ± 1.7e-05 s⁻¹

Q: Which “self-cleavage kobs at 160 uM GlcN6P” value does the source give for G13U G32C here?
A: 3.19e-05 ± 1.7e-05 s⁻¹

Q: How did the “self-cleavage kobs at 160 uM GlcN6P” value turn out when A14C G29C was run?
A: 2.18e-05 ± 2e-05 s⁻¹

Variants of: B1
Test: self-cleavage kobs at 2500 uM GlcN6P; higher = faster cleavage; RNA array
Details: with glucosamine-6-phosphate
Summary of the method: as §1

Q: Which “self-cleavage kobs at 2500 uM GlcN6P” value does the source give for C11U U65G here?
A: 0.000107 ± 5.5e-05 s⁻¹

Q: With A12G G29U C67G as the variant, how does the “self-cleavage kobs at 2500 uM GlcN6P” value read?
A: 4.42e-05 ± 2.3e-05 s⁻¹

Q: How did the “self-cleavage kobs at 2500 uM GlcN6P” value turn out when A12G U49G was run?
A: 1.82e-05 ± 9.3e-06 s⁻¹

Variants of: B1
Test: self-cleavage kobs at 40 uM GlcN6P; higher = faster cleavage; RNA array
Details: with glucosamine-6-phosphate
Summary of the method: as §1

Q: With A12C C68U as the variant, how does the “self-cleavage kobs at 40 uM GlcN6P” value read?
A: 1.22e-05 ± 9.3e-06 s⁻¹

Q: With A12C C70G as the variant, how does the “self-cleavage kobs at 40 uM GlcN6P” value read?
A: 1.81e-05 ± 1.1e-05 s⁻¹

Q: With A12U U31G U47C as the variant, how does the “self-cleavage kobs at 40 uM GlcN6P” value read?
A: 2.54e-05 ± 1.3e-05 s⁻¹

Q: G13U A15G was tested. Which “self-cleavage kobs at 40 uM GlcN6P” value did it give?
A: 3.8e-05 ± 2.9e-05 s⁻¹

Variants of: B1
Test: self-cleavage kobs at 640 uM GlcN6P; higher = faster cleavage; RNA array
Details: with glucosamine-6-phosphate
Summary of the method: as §1

Q: With A12G G59C as the variant, how does the “self-cleavage kobs at 640 uM GlcN6P” value read?
A: 2.8e-05 ± 1.7e-05 s⁻¹

Q: For A12G G66U, which “self-cleavage kobs at 640 uM GlcN6P” value is on record?
A: 2.42e-05 ± 1.5e-05 s⁻¹

Q: Which “self-cleavage kobs at 640 uM GlcN6P” value does the source give for G13A G40A here?
A: 1.29e-05 ± 1.1e-05 s⁻¹

Q: With G13A U65A as the variant, how does the “self-cleavage kobs at 640 uM GlcN6P” value read?
A: 1.58e-05 ± 1.3e-05 s⁻¹

Variants of: B1
Test: self-cleavage kobs at 10000 uM GlcN6P; higher = faster cleavage; RNA array
Details: with glucosamine-6-phosphate
Summary of the method: as §1

Q: With A12U G37U as the variant, how does the “self-cleavage kobs at 10000 uM GlcN6P” value read?
A: 1.29e-05 ± 7.2e-06 s⁻¹

Q: Which “self-cleavage kobs at 10000 uM GlcN6P” value does the source give for G13C G41U here?
A: 1.49e-05 ± 1.2e-05 s⁻¹
